## Screening data, single-dose tests

Chains of the proteins cited; added tags and fusions are not shown.
UniProt P9WFT3, whole entry: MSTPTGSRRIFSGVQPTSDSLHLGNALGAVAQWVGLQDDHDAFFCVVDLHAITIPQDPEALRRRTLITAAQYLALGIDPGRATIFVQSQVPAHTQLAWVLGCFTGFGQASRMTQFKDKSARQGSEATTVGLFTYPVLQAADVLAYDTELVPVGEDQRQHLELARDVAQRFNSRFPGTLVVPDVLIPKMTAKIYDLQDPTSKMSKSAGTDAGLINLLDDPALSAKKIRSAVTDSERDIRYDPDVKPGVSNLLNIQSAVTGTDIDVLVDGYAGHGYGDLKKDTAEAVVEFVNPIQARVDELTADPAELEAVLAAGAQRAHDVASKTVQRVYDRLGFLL
UniProt P9WNZ1, whole entry: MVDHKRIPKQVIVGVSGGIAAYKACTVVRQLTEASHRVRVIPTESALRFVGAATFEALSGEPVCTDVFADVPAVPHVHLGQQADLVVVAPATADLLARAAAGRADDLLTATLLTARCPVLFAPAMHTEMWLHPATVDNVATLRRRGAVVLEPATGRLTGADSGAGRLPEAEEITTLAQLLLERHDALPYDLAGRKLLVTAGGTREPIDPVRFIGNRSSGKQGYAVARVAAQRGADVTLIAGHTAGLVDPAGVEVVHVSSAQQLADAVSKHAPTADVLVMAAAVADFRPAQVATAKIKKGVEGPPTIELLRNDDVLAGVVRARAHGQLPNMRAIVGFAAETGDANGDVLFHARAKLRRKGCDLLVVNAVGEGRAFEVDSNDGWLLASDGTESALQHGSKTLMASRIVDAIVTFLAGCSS
UniProt P9WPC5, whole entry: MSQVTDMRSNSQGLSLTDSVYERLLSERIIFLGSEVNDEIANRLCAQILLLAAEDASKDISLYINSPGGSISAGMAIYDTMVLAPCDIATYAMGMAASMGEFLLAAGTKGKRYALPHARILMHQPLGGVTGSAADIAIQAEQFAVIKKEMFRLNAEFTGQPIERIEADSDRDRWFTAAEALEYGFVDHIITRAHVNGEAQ
UniProt P9WPC3, whole entry partner: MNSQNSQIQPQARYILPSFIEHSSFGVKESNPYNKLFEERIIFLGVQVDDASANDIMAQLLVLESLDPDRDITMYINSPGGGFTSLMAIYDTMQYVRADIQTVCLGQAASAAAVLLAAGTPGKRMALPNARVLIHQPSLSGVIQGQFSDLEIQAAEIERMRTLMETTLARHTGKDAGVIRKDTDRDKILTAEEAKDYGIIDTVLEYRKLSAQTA

Each number is a percent effect as filed.
How 0% and 100% were set is not recorded. Most values in the screen are low, and negative values occur.
The compounds are a random part of those screened.
Two or more numbers in one place are separate tests of the same structure; such repeats can differ widely.

MtTrpRS: 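Enzyme assay of tryptophanyl-tRNA synthetase; the read-out is not stated. Target: Tryptophan-tRNA ligase, Mycobacterium tuberculosis (UniProt P9WFT3). Tested at 10 µM. Direction is not recorded; retested compounds ran higher, which suggests that high means inhibition. Of about 65,000 compounds tested this way, about 64 (0.098%) reached 50% or more in at least one test.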
CoaBC: 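Enzyme assay of CoaBC with a phosphate dye (Biomol Green) read at 650 nm. Target: Coenzyme A biosynthesis protein CoaBC, Mycobacterium tuberculosis (UniProt P9WNZ1). Concentration: 30 µM. Direction is inferred from only a few compounds that gave an IC50; most scored high, so higher reads as stronger inhibition. Most strong results did not repeat in a second test. About 67,000 compounds were tested under these conditions; 0.06% (about 40) showed 50% or more at least once.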
ClpP1P2: 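Protease assay of ClpP1P2, read by the AMC dye that it sets free. Target: ClpP1P2, Mycobacterium tuberculosis (UniProt P9WPC5 and UniProt P9WPC3). Compounds at 50 µM. Higher reads as stronger inhibition, judged from the few compounds that gave an IC50. Most other retested compounds had strongly negative values. Size under these conditions: about 69,000 compounds, about 10 of them at 50% or above in at least one test.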

Cc1nc(CC(=O)N2CCC(Nc3cccnn3)CC2)cs1 read MtTrpRS: 1.979%; CoaBC: -1.053%; ClpP1P2: -7.743%.
Cc1ccccc1CN1CCCN(CCN2CCOC2=O)CC1 read MtTrpRS: -4.686%; CoaBC: -26.25%; ClpP1P2: -4.88%.
CC(C)Nc1cccc(CNC(=O)N2CCC(N3CC=CC3)C2)c1 (stereo not shown) read MtTrpRS: 2.037%; CoaBC: 5.374%; ClpP1P2: -12.27%.
COc1cccc2c1OCC(NCCCOc1cccnc1)C2 (stereo not shown) read MtTrpRS: -5.951%; CoaBC: 1.728%; ClpP1P2: -15.06%.
CS(=O)(=O)N1CCc2c(nnn2CC2CC2)C1COCC1CC1 (stereo not shown) read MtTrpRS: -3.03%; CoaBC: 12.9%; ClpP1P2: 3.768%.
Cc1ccc2nc(C3CCCN(Cc4ccccc4)C3)nc(O)c2c1 (stereo not shown) read MtTrpRS: -8.038%; CoaBC: 3.421%; ClpP1P2: -1.738%.
c1cncc(CN2CC[C@@H]3[C@@H]2CCN3Cc2ccc3c(c2)OCO3)c1 read MtTrpRS: -7.68%; CoaBC: -4.326%; ClpP1P2: -4.43%.
CC(=O)N[C@H]1CCO[C@@H](c2cccc(NC(=O)C(C)(C)C)c2)C1 read MtTrpRS: 1.24%; CoaBC: -4.116%; ClpP1P2: -12.28%.
COCCCN(C)C1CCCN(Cc2noc(C)n2)C1 (stereo not shown) read MtTrpRS: -2.041%; CoaBC: 6.408%; ClpP1P2: -0.1289%.
COc1ccc(OC)c(NC(=O)CSc2ccc3nncn3n2)c1 read MtTrpRS: 5.145%; CoaBC: -0.3645%; ClpP1P2: -5.342%.
CCn1c(CC2CCNCC2)nn(Cc2ccc(C(=O)NC)o2)c1=O read MtTrpRS: 8.448%; CoaBC: -2.296%; ClpP1P2: -4.128%.
COC(=O)Cn1cccc(S(=O)(=O)N2CCC(C)CC2)c1=O read MtTrpRS: 15.28%; CoaBC: 2.019%; ClpP1P2: 13.08%.
CCc1ccc(C(=O)N2CCN(c3nc(C)cc(OC)n3)CC2)o1 read MtTrpRS: -5.226%; CoaBC: -6.636%; ClpP1P2: -12.36%.
CCn1ccnc1CN1CCN(CC(=O)NC(C)(C#N)C2CC2)CC1 (stereo not shown) read MtTrpRS: -1.887%; CoaBC: 2.128%; ClpP1P2: 12.13%.
CC(=O)NCC(=O)N1CCc2c(CN(C)C)nn(C(C)C)c2C1 read MtTrpRS: -1.187%; ClpP1P2: 2.398%.
COCC1CN(Cc2ccsc2)Cc2cnn(C)c21 (stereo not shown) read MtTrpRS: -2.632%; CoaBC: 22.72% and 2.577%; ClpP1P2: 5.528%.
O=C(CCc1nc(-c2cccnc2)no1)NCC1CCN(C2CC2)C1 (stereo not shown) read MtTrpRS: 0.5112%; CoaBC: 3.949%; ClpP1P2: 4.143%.
COc1ncccc1NC(=O)N1CCCC(CNC(=O)OC(C)(C)C)C1 (stereo not shown) read MtTrpRS: -1.876%; CoaBC: -0.3745%; ClpP1P2: -6.792%.
Cc1nc(C)c(C(=O)N2CCc3c(Cl)cccc32)o1 read MtTrpRS: -0.9441%; CoaBC: 3.65%; ClpP1P2: -9.19%.
O=C([C@H]1CN(Cc2ccoc2)C[C@H]2OCC[C@@H]12)N1CCCCO1 read MtTrpRS: 2.881%; CoaBC: 1.29%; ClpP1P2: -13.42%.
Cc1nc(N2CCCC(C)C2)nc2cc(S(C)(=O)=O)ccc12 (stereo not shown) read MtTrpRS: 1.192%; CoaBC: 5.623%; ClpP1P2: 6.941%.
Cc1nn(CCC(=O)NC2CCS(=O)(=O)C2)c(C)c1Br (stereo not shown) read MtTrpRS: 5.448%; CoaBC: 4.248%; ClpP1P2: -1.376%.
Cc1nc2c(c(N3CCCOCC3)n1)CCN(c1nccs1)CC2 read MtTrpRS: 1.363%; CoaBC: 2.913%; ClpP1P2: -2.567%.
CN(CCC(=O)NC1CC1)Cc1ccc(Cl)s1 read MtTrpRS: -4.046%; CoaBC: 2.947%; ClpP1P2: 1.811%.
N#Cc1c(N)nc2c(c1C1CCOC1)CCc1cc(O)ccc1-2 (stereo not shown) read MtTrpRS: 6.121%; CoaBC: 4.141%; ClpP1P2: -2575%.
CCN(C)C[C@@H]1CN(Cc2cnc3c(S(C)(=O)=O)cnn3c2)C[C@@H]1CO read MtTrpRS: -5.016%; CoaBC: 7.975%; ClpP1P2: -6.656%.
Cc1nc(Cn2cc(C#N)c(=O)c3ccccc32)no1 read MtTrpRS: -5.34%; CoaBC: 1.595%; ClpP1P2: -9.177%.
Cc1nnc(SCc2cccc(F)c2)n1CC(N)=O read MtTrpRS: 6.427%; CoaBC: 6.786%; ClpP1P2: -6.759%.
Cc1nn(C)c(C)c1C(C)NC(=O)c1cc(CN2CCC(O)CC2)on1 (stereo not shown) read MtTrpRS: 0.7064%; ClpP1P2: 8.656%.
Cc1nn(C)c(C)c1C1CCCN1C(=O)c1ccc(NC2CC2)nc1 (stereo not shown) read MtTrpRS: -4.568%; CoaBC: 15.85%; ClpP1P2: -1.588%.

Some entries from above, unchanged:

structure	MtTrpRS	CoaBC	ClpP1P2
Cc1nc(CC(=O)N2CCC(Nc3cccnn3)CC2)cs1	1.979%	-1.053%	-7.743%
Cc1nn(CCC(=O)NC2CCS(=O)(=O)C2)c(C)c1Br (stereo not shown)	5.448%	4.248%	-1.376%

The values are deposited in ChEMBL (CHEMBL3988442, “University of Dundee, Small-Polar-MMV Screening Library” (2021)).